Test results from publication PMC10617112.
No constants are given. Whether binding was seen depends on the method and setting. For some assays here: In cells and extracts the contact can be indirect. Some binding calls cover weakened binding; strength is not graded here. Tags and fused reporters may be left off the sequences shown. Blank lines part the entries; values can stand above or below the binder they belong to.

Columns and labels:
[1] = biological target: T1, BD-VdZFP2 (Verticillium dahliae) (UniProt G2XEQ9); assay: two-hybrid; one-to-one Y2H in yeast Y2Hgold; prey in pGADT7, bait in pGBKT7; growth and blue colour on QDO (SD lacking Leu, Trp, His, Ade) with 3AT, 0.1 ug/mL AbA and 20 ug/mL X-a-Gal, 5 days
T1 sequence: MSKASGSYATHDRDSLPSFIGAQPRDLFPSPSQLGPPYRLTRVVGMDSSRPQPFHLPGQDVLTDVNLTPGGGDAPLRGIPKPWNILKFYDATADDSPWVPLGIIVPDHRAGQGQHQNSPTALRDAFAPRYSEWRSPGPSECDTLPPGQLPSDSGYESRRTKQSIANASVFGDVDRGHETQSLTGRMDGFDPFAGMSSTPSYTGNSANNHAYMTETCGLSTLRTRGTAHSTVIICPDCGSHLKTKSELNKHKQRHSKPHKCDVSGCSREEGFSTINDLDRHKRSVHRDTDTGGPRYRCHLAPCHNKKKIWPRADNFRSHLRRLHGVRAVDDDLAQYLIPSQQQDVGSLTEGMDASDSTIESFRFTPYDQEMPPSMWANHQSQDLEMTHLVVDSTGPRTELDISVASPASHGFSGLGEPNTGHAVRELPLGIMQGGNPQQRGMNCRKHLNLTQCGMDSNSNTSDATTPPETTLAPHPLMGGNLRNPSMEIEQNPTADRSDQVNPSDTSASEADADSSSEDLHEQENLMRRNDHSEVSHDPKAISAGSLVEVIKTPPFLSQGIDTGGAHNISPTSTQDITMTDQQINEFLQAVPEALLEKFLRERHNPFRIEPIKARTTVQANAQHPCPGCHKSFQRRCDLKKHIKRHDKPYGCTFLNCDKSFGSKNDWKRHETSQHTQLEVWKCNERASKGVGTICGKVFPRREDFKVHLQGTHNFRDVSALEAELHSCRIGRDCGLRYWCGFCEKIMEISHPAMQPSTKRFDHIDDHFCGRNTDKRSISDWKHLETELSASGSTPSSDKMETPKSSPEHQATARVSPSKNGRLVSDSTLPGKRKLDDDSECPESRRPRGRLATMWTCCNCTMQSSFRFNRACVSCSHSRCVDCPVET

[2] = biological target: T2, VdZFP2-YFP^N (Verticillium dahliae) (UniProt G2XEQ9); assay: split reporter; BiFC with YFP^N (pHZ65) and YFP^C (pHZ68) fusions co-transformed into protoplasts of V. dahliae WT strain AT13; YFP signal by fluorescence microscopy, cell wall stained with CFW
T2 sequence: T1 sequence

binding [1]: binds
B1: AD-VdZFP1 (protein, UniProt G2XER1 1-585)
chain: MTYHIFHLDRRLTQGPFYPEHQDYGQNQASHTEDALNFDMPPPIDPNLEQGLTAHLGTVSWPGVHTHQLKQYMVGPSTSLFALGQFQANYAYSQHDVNPLPPVSQGRHGSPFSQHHSSSCSDSLSPPTEIDVLPSTPPDMSATSPFSQAIKFQPSWDAQQSRLYTLRGIVPTQENPYVSLLEVNPSQDIFENEKAPEYDGSMALSFSSAGSQSEMEVQVKDEIFVAHSHSQPTYPDPDYEERDQSELEAEEMIMKHEDEDKEWTPHPSRKRTRSDANKAQYVATRPARKRSKVHALPRAVPSKSSHEAPHSTKHVLSCEACAQGPFRDEAALQKHMKGKHIRPFVCIFNFAGCSSSFPSKNEWKRHVVTQHLALSFWHCKQDACESCTNPASASQQGSPATDTPSPLPRGAIFNRKDLYTQHVRRMHVPPPIAKALRLRKPTPEWDDRLREMQTEAERRRCELPTHMQCPASGCDMVFSGANAWDERMEHVAKHLEKASEGREPMLSFGGDGDPTLTNWAASPGVGVVRKTDTGEWELMHPLRGQPASAGGIAKRGAKGHSSSSPQAARYEEESAEDVDADGEED

binding [2]: binds
B2: VdZFP1-YFP^C (protein, UniProt G2XER1 1-585)
chain: B1 chain
